No constants are given. Whether binding was seen depends on the method and setting. Binding seen in cells or lysates may run through a third protein. Some entries that bind do so weakly or less than the wild type.
Molecular target: T7-tagged caspase-1 (UniProt P29466)
Test: co-immunoprecipitation from 293T lysates (IP anti-T7, blot anti-myc)

Protein sequences, listed by entry. Tags and fused reporters are not part of them. Lines headed by an entry give the natural chain unless they say otherwise; changes in a name come on top.
UniProt P29466: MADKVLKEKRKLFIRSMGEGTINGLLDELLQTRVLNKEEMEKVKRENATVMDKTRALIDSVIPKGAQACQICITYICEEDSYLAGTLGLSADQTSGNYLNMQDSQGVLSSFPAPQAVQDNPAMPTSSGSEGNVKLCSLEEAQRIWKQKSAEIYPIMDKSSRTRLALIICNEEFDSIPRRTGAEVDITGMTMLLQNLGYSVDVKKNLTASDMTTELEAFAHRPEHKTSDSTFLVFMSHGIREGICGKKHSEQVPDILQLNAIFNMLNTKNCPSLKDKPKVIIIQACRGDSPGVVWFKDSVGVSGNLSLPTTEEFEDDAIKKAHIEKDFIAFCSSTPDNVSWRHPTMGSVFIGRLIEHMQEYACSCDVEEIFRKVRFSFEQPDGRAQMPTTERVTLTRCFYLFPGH
UniProt Q9NPP4: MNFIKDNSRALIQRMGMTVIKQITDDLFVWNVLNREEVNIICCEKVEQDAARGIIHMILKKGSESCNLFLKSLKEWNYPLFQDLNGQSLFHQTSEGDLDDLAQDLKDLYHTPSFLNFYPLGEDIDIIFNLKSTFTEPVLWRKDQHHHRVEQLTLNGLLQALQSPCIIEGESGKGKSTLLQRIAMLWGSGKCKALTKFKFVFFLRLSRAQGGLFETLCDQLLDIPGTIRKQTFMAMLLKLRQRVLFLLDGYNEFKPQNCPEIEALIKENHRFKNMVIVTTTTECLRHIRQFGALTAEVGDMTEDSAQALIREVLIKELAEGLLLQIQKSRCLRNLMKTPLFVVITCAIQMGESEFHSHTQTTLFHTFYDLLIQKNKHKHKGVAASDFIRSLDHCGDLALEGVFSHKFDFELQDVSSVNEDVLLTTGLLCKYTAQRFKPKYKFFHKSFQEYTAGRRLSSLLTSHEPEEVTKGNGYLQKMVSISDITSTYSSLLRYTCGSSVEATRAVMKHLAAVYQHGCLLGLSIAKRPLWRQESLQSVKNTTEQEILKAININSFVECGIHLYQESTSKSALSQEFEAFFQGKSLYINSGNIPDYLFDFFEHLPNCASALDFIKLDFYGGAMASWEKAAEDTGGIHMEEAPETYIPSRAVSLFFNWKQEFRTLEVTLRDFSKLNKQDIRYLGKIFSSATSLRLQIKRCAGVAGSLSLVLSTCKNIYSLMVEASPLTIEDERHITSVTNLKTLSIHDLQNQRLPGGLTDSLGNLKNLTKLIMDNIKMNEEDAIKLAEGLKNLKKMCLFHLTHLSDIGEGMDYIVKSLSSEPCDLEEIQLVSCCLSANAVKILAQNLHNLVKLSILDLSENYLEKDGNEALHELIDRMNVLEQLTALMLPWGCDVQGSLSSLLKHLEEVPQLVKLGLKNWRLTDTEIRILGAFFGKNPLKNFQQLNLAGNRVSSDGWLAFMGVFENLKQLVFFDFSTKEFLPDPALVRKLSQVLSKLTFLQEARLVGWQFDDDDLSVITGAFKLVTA

In the case of “myc-tagged CARD-12 (from UniProt Q9NPP4 1-1024)”, the binding is reported as “binds”.

From patent US20030190679A1
